Assay [1] addresses PHD finger of PHF23 (aa 338-393), M353V mutant (human) (UniProt Q9BUL5). The assay is described as follows: other fluorescence titration + NMR titration; PHF23PHD mutants with H3K4me3 peptide, measured by tryptophan fluorescence or by NMR titration (Fig. 2e); which method for which mutant is marked only in the figure; both purified.
Assay [2] concerns the target PHD finger of PHF23 (aa 338-393), W362A mutant (human) (UniProt Q9BUL5). The assay is described as above.

Amino acid sequences for entries named in this document (tags omitted). A change or cut given only in a name is not applied to a line headed by its entry. Chains listed by the source or under a name are the forms on record and can include a tag or linker.
PHD finger of PHF23 (aa 338-393), M353V mutant (Q9BUL5, form named): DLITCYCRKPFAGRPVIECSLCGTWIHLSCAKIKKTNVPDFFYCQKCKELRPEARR
PHD finger of PHF23 (aa 338-393), W362A mutant (Q9BUL5, form named): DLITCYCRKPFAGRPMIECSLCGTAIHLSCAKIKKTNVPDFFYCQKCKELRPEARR

No constants are given. Whether binding was seen depends on the method and setting. Non-standard residues stand in square brackets, D forms with d. No end group written: not given here. Lys(Me3) = C[N+](C)(C)CCCC[C@H](N)C(=O)O

B1: histone H3K4me3 peptide (aa 1-12 of H3K4me3) (peptide, UniProt P68431 2-13, looked up)
peptide: ART[Lys(Me3)]QTARKSTG
notes: histone H3, residues 1-12, trimethylated on Lys4; source: synthetic peptide (SynPeptide)
With B1, the binding entry in assay [1] and in assay [2] was “no binding” throughout.
